Data from article PMC13183915, “A platinum butterfly effect: small changes turn an anticancer drug into a non-toxic metalloantibiotic with in vivo efficacy” (npj Antimicrobials and Resistance, 2026).

System: MRSA
Assay: Antibiotic uptake assay (ICP-MS of cellular Pt)
Format: cell-based, S. aureus
Details: 1.56 µM Pt1, 6.25 µM Pt8, 100 µM CisPt

N.N.[Cl][Pt][Cl] [CisPt, cisplatin] was tested, and the “Percent Pt content of MRSA cell lysate (% Pt)” value (60 min treatment) was 0.03 ± 0.02% and the “absolute amounts of platinum in bacteria after treatment” value (MRSA) was 2.6 µg/L.
